Source: ChEMBL document CHEMBL1126160, “Synthesis and structure-activity relationships of 7-diazabicycloalkylquinolones, including danofloxacin, a new quinolone antibacterial agent for veterinary medicine” (J Med Chem, 1992)
Converted amounts (≈) assume the structure as drawn.

Experiment: Compound was evaluated for aqueous solubility at pH 7.2
Conditions: buffer

For CCn1cc(C(=O)O)c(=O)c2cc(F)c(N3CCN(C)CC3)cc21 [PEFLOXACIN], the solubility was 197 µg/mL (≈ 591 µM).
